# Results reported in the supplement of paper PMC8728848.
# Some of the results follow.
# How the values were obtained:
# Assay in all cases: glycan array binding signal (z-score within array); higher = stronger binding
# Conditions in all cases: glycan notation: IUPAC condensed, linker removed
# [1] = target: Fuc(a1-3)[Gal(b1-4)]Glc6S
# Summary of the method: (§1)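 Glycan array binding is given as a within-array Z-score, which can be read as non-binding when negative. The arrays, 3228 of them, came from the Consortium for Functional Glycomics database and were retained only where the protein sequence was available. Z-scores were averaged across arrays of the same protein sequence at different concentrations or buffers and across linkers.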
# [2] = target: Fuc(a1-3)[Gal(b1-4)]GlcNAc
# Summary of the method: as §1
# [3] = target: Fuc(a1-3)[Gal(b1-4)]GlcNAc(b1-2)Man
# Summary of the method: as §1
# [4] = target: Fuc(a1-3)[Gal(b1-4)]GlcNAc(b1-2)Man(a1-3)[Fuc(a1-3)[Gal(b1-4)]GlcNAc(b1-2)Man(a1-6)]Man(b1-4)GlcNAc(b1-4)GlcNAc
# Summary of the method: as §1
# [5] = target: Fuc(a1-3)[Gal(b1-4)]GlcNAc(b1-2)Man(a1-3)[Fuc(a1-3)[Gal(b1-4)]GlcNAc(b1-2)Man(a1-6)]Man(b1-4)GlcNAc(b1-4)[Fuc(a1-6)]GlcNAc
# Summary of the method: as §1
# [6] = target: Fuc(a1-3)[Gal(b1-4)]GlcNAc(b1-2)Man(a1-6)[Gal(b1-4)GlcNAc(b1-2)Man(a1-3)]Man(b1-4)GlcNAc(b1-4)GlcNAc
# Summary of the method: as §1
# [7] = target: Fuc(a1-3)[Gal(b1-4)]GlcNAc(b1-3)Gal(b1-3)[Fuc(a1-4)]GlcNAc
# Summary of the method: as §1
# [8] = target: Fuc(a1-3)[Gal(b1-4)]GlcNAc(b1-3)Gal(b1-4)[Fuc(a1-3)]GlcNAc
# Summary of the method: as §1
# [9] = target: Fuc(a1-3)[Gal(b1-4)]GlcNAc(b1-3)Gal(b1-4)[Fuc(a1-3)]GlcNAc(b1-3)Gal(b1-4)[Fuc(a1-3)]GlcNAc
# Summary of the method: as §1
# [10] = target: Fuc(a1-3)[Gal(b1-4)]GlcNAc(b1-3)GalNAc
# Summary of the method: as §1
# [11] = target: Fuc(a1-3)[Gal(b1-4)]GlcNAc(b1-4)Gal(b1-4)[Fuc(a1-3)]GlcNAc
# Summary of the method: as §1
# [12] = target: Fuc(a1-3)[Gal(b1-4)]GlcNAc(b1-4)Gal(b1-4)[Fuc(a1-3)]GlcNAc(b1-4)Gal(b1-4)[Fuc(a1-3)]GlcNAc
# Summary of the method: as §1
# [13] = target: Fuc(a1-3)[Gal(b1-4)]GlcNAc(b1-6)GalNAc
# Summary of the method: as §1
# [14] = target: Fuc(a1-3)[Gal(b1-4)]GlcNAc(b1-6)[Gal(b1-3)GlcNAc(b1-3)]Gal(b1-4)Glc
# Summary of the method: as §1
# [15] = target: Fuc(a1-3)[Gal(b1-4)]GlcNAc6S
# Summary of the method: as §1
# [16] = target: Fuc(a1-3)[Gal3S(b1-4)]Glc
# Summary of the method: as §1
# [17] = target: Fuc(a1-3)[Gal3S(b1-4)]Glc6S
# Summary of the method: as §1
# [18] = target: Fuc(a1-3)[Gal3S(b1-4)]GlcNAc
# Summary of the method: as §1
# [19] = target: Fuc(a1-3)[Gal3S(b1-4)]GlcNAc6S
# Summary of the method: as §1
# [20] = target: Fuc(a1-3)[GalNAc(b1-4)]GlcNAc
# Summary of the method: as §1
# [21] = target: Fuc(a1-3)[GalNAc(b1-4)]GlcNAc6S
# Summary of the method: as §1
# [22] = target: Fuc(a1-3)[Neu5Ac(a2-3)]Gal(b1-4)GlcNAc(b1-3)GalNAc
# Summary of the method: as §1
# Fuc(a1-4)GlcNAc = target: Fuc(a1-4)GlcNAc
# Summary of the method: as §1
binder,measurement,setting,value
"BabA (Helicobacter pylori), O52269_HELPY (protein) AEDDGFYMSAGYQIGEAAQMVKNTKGIQELSDNYENLSNLLTRYSTLNTLIKLSADPSAVNAARENLGASAKNLIGDTKNSPAYQAVLLAINAAVGFWNVVGYVTQCGGNANGQKSTSSTTIFNNEPGYRSTSITCSLNGHMPGYYGPMSIENFKKLNEAYQILQTALKNGLPALKENNGTVNVTYSYTCSGEGNDNCSLQTTGVTNQNNGTKTETQTIDGKSVTTTISSKVVDSQ",glycan array binding signal (z-score),[1],0.843
same,glycan array binding signal (z-score),[2],-0.421
same,glycan array binding signal (z-score),[3],-0.146
same,glycan array binding signal (z-score),[4],-0.812
same,glycan array binding signal (z-score),[5],0.099
same,glycan array binding signal (z-score),[6],-1.52
same,glycan array binding signal (z-score),[7],0.248
same,glycan array binding signal (z-score),[8],0.417
same,glycan array binding signal (z-score),[9],-0.282
same,glycan array binding signal (z-score),[10],-0.319
same,glycan array binding signal (z-score),[11],0.227
same,glycan array binding signal (z-score),[12],-1.36
same,glycan array binding signal (z-score),[13],0.063
same,glycan array binding signal (z-score),[14],0.017
same,glycan array binding signal (z-score),[15],1.91
same,glycan array binding signal (z-score),[16],-0.137
same,glycan array binding signal (z-score),[17],-0.386
same,glycan array binding signal (z-score),[18],-0.018
same,glycan array binding signal (z-score),[19],0.395
same,glycan array binding signal (z-score),[20],0.578
same,glycan array binding signal (z-score),[21],-0.664
same,glycan array binding signal (z-score),[22],-0.984
same,glycan array binding signal (z-score),Fuc(a1-4)GlcNAc,-0.389

# A section from the list above:
binder,measurement,setting,value
"BabA (Helicobacter pylori), O52269_HELPY (protein) AEDDGFYMSAGYQIGEAAQMVKNTKGIQELSDNYENLSNLLTRYSTLNTLIKLSADPSAVNAARENLGASAKNLIGDTKNSPAYQAVLLAINAAVGFWNVVGYVTQCGGNANGQKSTSSTTIFNNEPGYRSTSITCSLNGHMPGYYGPMSIENFKKLNEAYQILQTALKNGLPALKENNGTVNVTYSYTCSGEGNDNCSLQTTGVTNQNNGTKTETQTIDGKSVTTTISSKVVDSQ",glycan array binding signal (z-score),[13],0.063
same,glycan array binding signal (z-score),[14],0.017
same,glycan array binding signal (z-score),[15],1.91
same,glycan array binding signal (z-score),[16],-0.137
same,glycan array binding signal (z-score),[17],-0.386
same,glycan array binding signal (z-score),[18],-0.018
